Assay results published in PMC12040169 (PLOS Biology, 2025).
The other results are listed elsewhere or left out.

tested on: T1, CTL2-GFP (C. trachomatis L2/434/Bu, GFP-expressing); design: species or system HeLa; Intracellular C. trachomatis growth in HeLa cells, bulk GFP fluorescence relative to DMSO; details: bulk GFP, single well; 28.5 h, 10 µM; inhibitor
T1 construct: L2/434/Bu, GFP-expressing

Row | SMILES | % of control remaining [%]
1 | O=C(O)c1ccc(NC2CCS(=O)(=O)C2)cc1 (centres unmarked) [CBK287168] | 153.935
2 | CC1=NNC(=O)C1CCC(=O)N/N=C/C(Br)=C/c1ccccc1 (centres unmarked) [CBK262929] | 100.362
3 | Cc1ccnc2nc(C(=O)OC(C)C(=O)c3ccc4c(c3)CCC4)nn12 (centres unmarked) [CBK304528] | 134.399
4 | O=C1NN=C(Cc2ccccc2)C1c1ccccc1 (centres unmarked) [CBK067757] | 107.739
5 | CC(C)(C)c1ccc(-c2nc3ncccc3cc2O)cc1 [CBK073703] | 125.537
6 | Cc1ccc(CNc2oc(COc3ccc(Br)cc3)nc2C#N)cc1 [CBK074467] | 109.396
7 | COc1cc(Nc2cccc(-c3ccsc3)n2)cc(OC)c1OC [CBK036987] | 110.204
8 | Fc1ccc(Oc2nccnc2N2CCN(Cc3ccccc3F)CC2)cc1 [CBK083009T] | 101.143
9 | Cc1cc(C)c(C)c(S(=O)(=O)Nc2ccc(C(=O)NCc3ccccn3)cc2)c1C [CBK267275] | 154.812
10 | O=S(=O)(CCN1CCN(C(c2ccccc2)c2ccccc2)CC1)c1ccc(Cl)cc1 [CBK074810] | 104.919
11 | Cn1nc(-c2ccc(F)cc2)cc1C(=O)NCCn1ccnc1 [CBK281576] | 129.379
12 | O=C(c1csc2c1CCCC2)N1CCc2c(nc[nH]c2=O)C1 [CBK283717] | 150.182
13 | CC1CCN(S(=O)(=O)c2ccc(C(=O)O)cc2)CC1 [CBK287195] | 133.697
14 | c1cncc(COc2nccnc2OC2CCN(Cc3cccnc3)CC2)c1 [CBK083158] | 117.506
15 | Cc1ccc(C(=O)n2nc(-c3cccnc3)nc2N)cc1 [CBK288172] | 117.487
16 | Cn1c(=O)c2c(nc(CN3CCOCC3)n2Cc2c(F)cccc2Cl)n(C)c1=O [CBK269224] | 125.677
17 | N#CCn1nnc(-c2ccc3c(c2)OCO3)n1 [CBK062663] | 124.113
18 | COc1ccc(-c2ccccc2NS(=O)(=O)c2ccc3c(c2)CCC(=O)N3)cc1 [CBK286370] | 107.535
19 | O=C(CSc1nc2ccccc2[nH]1)Nc1cccc(C(=O)O)c1 [CBK263225] | 88.2245
20 | COC(=O)[C@H]1CCc2ccccc2N1C(=O)c1ccco1 [CBK284259] | 141.995
21 | Cc1ccc(C2(c3ccc(C)cc3)CC2C(=O)Nc2ccccc2[N+](=O)[O-])cc1 (centres unmarked) [CBK263591] | 123.354
22 | O=C(NCc1ccccc1)[C@@H]1Cc2[nH]cnc2CN1C(=O)C1CCCCC1 [CBK288972] | 107.299
23 | O=C(NCCc1ccc(O)cc1)c1ccc(-c2ccc(OC(F)(F)F)cc2)nc1 [CBK156224] | 82.5944
24 | CCN1CCC2(CC1)Nc1cc(Cl)c(S(N)(=O)=O)cc1S(=O)(=O)N2 [CBK010418C] | 129.618
25 | CCC(C)CS(=O)(=O)c1nc(C)c(C)n1CC1CCCO1 (centres unmarked) [CBK305107] | 59.9998

Row | SMILES | % of control remaining [%]
26 | CCOC(=O)CCCNC(=O)N1CCCC(CO)C1 (centres unmarked) [CBK156344] | 114.834
27 | Cc1nc(-c2nnc(NC(=O)COc3ccc(Cl)cc3Cl)o2)cs1 [CBK287843] | 109.918
28 | CC(C)(O)C1CCCN(C(=O)c2cc(COc3cccc(F)c3)[nH]n2)C1 (centres unmarked) [CBK306653] | 121.123
29 | Cc1noc(C)c1S(=O)(=O)n1c(=O)n(Cc2ccc(S(C)(=O)=O)cc2)c2ccccc21 [CBK106536] | 119.885
30 | COCC(=O)NC(Cc1cccs1)c1nc(C)cs1 (centres unmarked) [CBK285004] | 112.516
31 | COc1ccccc1-c1nccnc1N[C@H](C)c1ccccc1 [CBK038083] | 129.034
32 | CC(=O)NCC(=O)N1CCCC2(C/C=C/COc3ccccc3C(=O)NCCNC2=O)C1 (centres unmarked) [CBK291991] | 134.626
33 | O=C(CSc1nnc(-c2ccncc2)n1-c1ccccc1)N/N=C/c1c[nH]c2ccc(Br)cc12 [CBK262816] | 100
34 | Cc1cc(NC(=O)CN(C)C(=O)c2cnc(Cl)c(Cl)c2)no1 [CBK306132] | 101.329
35 | NS(=O)(=O)c1ccc(CCNC(=O)C2CC2)cc1 [CBK288407] | 84.4774
36 | Cc1nn(CC(=O)N2CCCCC2C)c(=O)c2cc3sccc3n12 (centres unmarked) [CBK284141] | 123.941
37 | Cc1ccc(OCC(=O)N2CCN(C(=O)c3ccncc3)CC2)cc1 [CBK300480] | 122.546
38 | CC(C)N1CCC(C(=O)NC(=O)Nc2ccc3c(c2)OCCO3)CC1 [CBK034799] | 116.472
39 | CC(C)CNC(=S)N[C@H]1CC[C@@]2(c3cccnc3)CCN(Cc3ccccc3)[C@H]2C1 [CBK028460] | 121.884
40 | CC(=O)NCCSc1nc2ccccc2nc1N1CCCC1 [CBK103696] | 113.331
41 | O=S(=O)(CC(F)(F)F)Nc1ccc(-c2nnn[nH]2)cc1 [CBK154754] | 95.1806
42 | COc1cc(C(=O)N(Cc2ccco2)c2ccc(O)cc2)cc(OC)c1OC [CBK266315] | 95.1268
43 | CC(C)(C)OC(=O)N1CCN(c2cncc(OC3CSCc4ccccc43)n2)CC1 (centres unmarked) [CBK172354] | 128.404
44 | O=C(Nc1cccc(C(=O)O)c1)/C(=C\c1ccc2c(c1)OCO2)NC(=O)c1ccccc1 [CBK263697] | 113.949
45 | CCN1C(=O)S/C(=C/c2ccc(OCc3cccc(C(=O)O)c3)cc2)C1=O [CBK265605] | 115.714
46 | c1ccc(NCc2ncnc3c2ncn3C2CCCCO2)cc1 (centres unmarked) [CBK021593] | 66.276
47 | CCC1CCCCN1Cc1nc2c(c(=O)n(C)c(=O)n2C)n1CCOC (centres unmarked) [CBK305912] | 138.985
48 | COc1ccc(NC(=O)Nc2ccc3nc(C)c(C)nc3c2)cc1 [CBK265120] | 153.073
49 | CCCCN(Cc1ccc(C)s1)C(=O)C1CCc2nn(C)c(=O)n2C1 (centres unmarked) [CBK307360] | 118.337
50 | CCn1cncc1CN(CCCn1ccnc1)CC1CC=CCC1 (centres unmarked) [CBK283220] | 126.471
